## Results from one PubChem assay

Source: PubChem BioAssay AID1159506 (NCATS, 2015).

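Luminescence from an EWS-FLI1 target-promoter (NR0B1) reporter, set against a CMV-promoter reporter, two days after silencing single genes in TC32 Ewing sarcoma cells. Each siRNA was applied at 20 nM. A z-score of the log NR0B1-over-CMV signal, less the median of siRNAs with the same seed; more negative means a stronger specific loss of the NR0B1 reporter.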

The strongest results of the screen are mostly left out here. Sequences are the guide (antisense) strand, without overhang.

siRNA	target gene	seed-corrected z-score
UAAUUCUUCAGGACAAACU	PTPN23	-0.6578
UUCUGUAUUCUAGUUUCUC	ADPRH	-0.2608
AUAUGUACGGGAAGGGUCG	FLJ36848	-0.7657
UCCUCGUUGGAGUAAGUGC	PPP1R9B	0.3888
UACCGAAUAAUUAGUCAGC	IFNG	0.0954
UCAAUGUUGACCUCUUUAG	RGS16	0.8101
UUCUUGACAUGUAUAUUCC	GRPR	-0.2859
UUUCAUACAUAAUCACUCC	STK38L	-0.3861
UCACUUGUCCAUUCUACCU	PPP1R11	-0.8077
UAUCCGAAAUGUCCAAUUC	NEK10	-1.21
UACUUUCUCUGAGCUGUUC	BCL7A	-0.8914
AAUUAAUCCAGAAAAUGAC	P2RY12	0.2753
UAAUAGGUCUGUCUUGUCC	TBL1XR1	-0.2367
ACGUGGAUGAGUUACCUGC	RHBDL3	-0.3925
UAAUGUUCAGCUUAUCCAC	CTNNA1	-0.009718
UAAGGCUGUAUAUCAAGGG	OR5B21	-0.2525
UCUGGUUCCACACCAUGAC	ADAMTSL2	-0.1175
UUCGUGAUGAUCGGAAAGG	KNG1	1.12
UAUAGGAUAUGGUCUUUUU	OR4D11	0.5907
UCUGGAACAAAAUCCUUGG	ZC3H8	0.601
UCAGAUACCACGUCCCUGA	LCN1	-0.5204
UCCGGAUUCAGGCUUGUGG	PDGFA	-0.6854
UAGUGGUCCACAAAGAGUG	SLC30A5	-0.2874
UUUGUUCACGUACAUAAAC	DMRTC1	0.2534
UAUCUGAUGAUGCAGUGGC	INO80E	0.404
AUUGGGAUGCUCAAAAGCC	CDK4	-0.04072
AUCAGUUAAACUACUGUCC	NEK1	0.6264
UCCACGAUCAGAGUUCCUG	HULC	-0.4929
UAAAAUACCCUCAGCUGGC	GNB1L	1.041
UUCCUGAUCCAGGACACGU	GZMM	0.4152
UCUUUUUCCCAAGCUGCCG	GPRC5B	-0.8236
UCAGGUUCUACAGGUGAUG	PIAS2	-0.04633
UUCACGUGGCCUUUCACAC	CKLF	0.1373
AAAAGAAACGCGGAUUGGG	NAT16	-0.3415
UUAAACUCUAUCAUUAUGG	SLC24A4	-0.4908
AAUCGUAUUAAAGCUCUCC	GRHL2	-0.2769
AAACGAUUUGAGGUACUGC	PPP1R12A	0.08797
UUCAAGUCCACGGGAAUUC	ADCK2	-0.283
UGAAGUACAUGGACGGGUG	L3MBTL1	-0.5135
UGACGAUUGACAGUCAUGG	GFM1	0.5449
UCUACAUUCACCCUCAUCU	BOP1	0.7927
UCUUAGAAUAGCAAGGCAC	NEUROD1	0.05156
UUUAGGUCCACCUUGACGA	AURKB	-0.8906
UACAUUGUCUCUUAGCUGG	GABPB1	-1.122
UACCACUUCUGUCUCUAGC	ZNF890P	0.03617
AGAAUUUAAAUAGCAGUCC	SLC7A1	0.04606
AAUGGAUAGGGCAAAAGCC	WNK4	0.2965
UUUCUUAUAGCGAAUCCUC	PBX2	1.226
UUAAGUCCAAAAGGGUUUC	RAB27B	-0.6445
UUCGUCUUCAGGUCAGGUC	GALNT11	-0.1478
UCAGGAACCGUGUGGUAGG	MUC6	-0.707
UAUUUAUUUGAUGCAUCUG	CENPQ	0.257
UUAUCACCUGGUUAAACUC	DDX39A	1.04
UACAGCGCACUGUAGAUGU	TRAPPC1	0.1951
AGAGUGAAGACCGUGGUGC	S1PR1	-0.703
UAUCUCCUCAUUCCCGACA	LOC730098	-0.07371
AAGGGUCACAUCACGCUUG	PPP2R2B	-1.598
AUUGGUUUCAAAGCUCUUU	PLEKHD1	0.3483
UAAUAGUCAUUGAUGUUAC	ZNF131	0.5744
UUCCAUAUCUAUCAAGUAC	POTED	0.9233
UCAUGGUUCGUGUUGAUGU	DNM2	0.4273
UAAGCGAUUACUCAGGGCC	CEBPB	-0.1953
UCAUGGAGUAGUGCAGUCC	ADAMTS2	-1.132
AGAGUAAAUAGAGUGGGCC	YTHDF3	-1.267
UUUCCGUCAAGAGUCUAUC	CCDC18	0.4167
UAGAUAACAGGUAACAAGC	SPATA16	-0.3351
UUGCUUAUCGUUUCCUUCU	RAB11FIP1	-1.794
AAUACUUCAAGAAUUGGGA	CYP3A4	0.3239
UACGAUGCGAUUUGGAGCC	CADPS	-0.1418

For reference, 6 entries once more:

siRNA,target gene,seed-corrected z-score
AUCAGUUAAACUACUGUCC,NEK1,0.6264
AAUCGUAUUAAAGCUCUCC,GRHL2,-0.2769
UUUCUUAUAGCGAAUCCUC,PBX2,1.226
UAUAGGAUAUGGUCUUUUU,OR4D11,0.5907
UCAUGGUUCGUGUUGAUGU,DNM2,0.4273
UCCACGAUCAGAGUUCCUG,HULC,-0.4929